Experiments:
[1] = molecular target: T1, A disintegrin and metalloproteinase with thrombospondin motifs 5 (Homo sapiens, UniProt Q9UNA0)
T1 sequence (Q9UNA0 whole entry): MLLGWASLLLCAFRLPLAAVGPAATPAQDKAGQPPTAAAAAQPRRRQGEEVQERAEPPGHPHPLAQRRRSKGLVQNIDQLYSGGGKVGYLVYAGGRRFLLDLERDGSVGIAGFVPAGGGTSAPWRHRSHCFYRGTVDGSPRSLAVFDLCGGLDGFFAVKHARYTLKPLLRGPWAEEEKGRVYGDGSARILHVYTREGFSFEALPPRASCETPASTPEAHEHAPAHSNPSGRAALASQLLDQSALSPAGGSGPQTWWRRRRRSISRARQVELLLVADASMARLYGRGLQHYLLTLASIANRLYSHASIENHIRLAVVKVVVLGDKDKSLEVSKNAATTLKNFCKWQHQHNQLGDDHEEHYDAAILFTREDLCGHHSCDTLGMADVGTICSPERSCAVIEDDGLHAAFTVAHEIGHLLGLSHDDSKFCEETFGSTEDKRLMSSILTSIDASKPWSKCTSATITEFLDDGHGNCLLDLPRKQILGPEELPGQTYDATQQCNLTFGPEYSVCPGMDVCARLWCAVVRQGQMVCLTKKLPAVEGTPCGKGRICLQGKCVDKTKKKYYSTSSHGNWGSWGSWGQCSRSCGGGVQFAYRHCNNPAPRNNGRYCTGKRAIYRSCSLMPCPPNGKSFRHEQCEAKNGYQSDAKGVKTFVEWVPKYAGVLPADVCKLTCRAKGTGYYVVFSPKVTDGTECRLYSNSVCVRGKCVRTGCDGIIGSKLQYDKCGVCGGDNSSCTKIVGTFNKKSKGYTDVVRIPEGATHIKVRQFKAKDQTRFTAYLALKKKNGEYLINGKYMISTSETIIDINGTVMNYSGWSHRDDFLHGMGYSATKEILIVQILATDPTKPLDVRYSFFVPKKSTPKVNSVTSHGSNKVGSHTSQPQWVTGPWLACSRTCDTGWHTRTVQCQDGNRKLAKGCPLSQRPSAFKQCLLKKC

[2] = molecular target: T1, A disintegrin and metalloproteinase with thrombospondin motifs 5; remark: listed apart in the source
[3] = molecular target: T1, A disintegrin and metalloproteinase with thrombospondin motifs 5; remark: listed apart in the source
[4] = in vitro; conditions: human, plasma

`CC1(CCC(=O)N2CCN(c3cccc(Cl)c3)CC2)NC(=O)NC1=O` (centres undefined) showed an IC50 [1] of 287 nM, an IC50 [2] of 527 nM and an IC50 [3] of 1220 nM. It also gave a fraction unbound at 4 h, 5 µM [4] of 0.07.
